Measured values taken from the supplement of paper PMC12823440, “Inhibitors supercharge kinase turnover through native proteolytic circuits” (Nature, 2025).
Structures can show the parent of a compound that is named as a salt. Some of the results follow. The calls rarely recur for the same compound in another form.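 Kinases, fused to nanoluciferase, were expressed in K562 cells; luminescence was measured every 4 h from 2 to 18 h as percent of control (DMSO = 100%, positive control = 0%). A time point is decreased if signal falls significantly (2 sigma). Hits were called by the authors by a rule that is not shown; the count of time points alone does not decide it.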

Amino acid sequences for entries named in this document (tags omitted). A change or cut given only in a name is not applied to a line headed by its entry.
UniProt O15530: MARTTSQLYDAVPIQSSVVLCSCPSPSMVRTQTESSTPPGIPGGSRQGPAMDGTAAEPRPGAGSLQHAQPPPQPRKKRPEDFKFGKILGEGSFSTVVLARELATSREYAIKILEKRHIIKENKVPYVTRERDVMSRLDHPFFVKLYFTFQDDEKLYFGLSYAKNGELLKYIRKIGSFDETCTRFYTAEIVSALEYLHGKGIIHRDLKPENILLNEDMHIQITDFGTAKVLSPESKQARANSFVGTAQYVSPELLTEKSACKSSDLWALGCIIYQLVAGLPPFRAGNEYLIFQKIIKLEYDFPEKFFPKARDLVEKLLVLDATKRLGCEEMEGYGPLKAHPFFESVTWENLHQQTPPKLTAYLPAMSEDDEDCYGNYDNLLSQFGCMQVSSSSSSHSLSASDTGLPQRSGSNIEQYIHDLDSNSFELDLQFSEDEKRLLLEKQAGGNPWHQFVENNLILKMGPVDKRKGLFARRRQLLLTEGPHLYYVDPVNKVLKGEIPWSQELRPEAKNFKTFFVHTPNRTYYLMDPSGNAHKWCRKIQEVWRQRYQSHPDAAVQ
UniProt P42356, whole entry, looked up: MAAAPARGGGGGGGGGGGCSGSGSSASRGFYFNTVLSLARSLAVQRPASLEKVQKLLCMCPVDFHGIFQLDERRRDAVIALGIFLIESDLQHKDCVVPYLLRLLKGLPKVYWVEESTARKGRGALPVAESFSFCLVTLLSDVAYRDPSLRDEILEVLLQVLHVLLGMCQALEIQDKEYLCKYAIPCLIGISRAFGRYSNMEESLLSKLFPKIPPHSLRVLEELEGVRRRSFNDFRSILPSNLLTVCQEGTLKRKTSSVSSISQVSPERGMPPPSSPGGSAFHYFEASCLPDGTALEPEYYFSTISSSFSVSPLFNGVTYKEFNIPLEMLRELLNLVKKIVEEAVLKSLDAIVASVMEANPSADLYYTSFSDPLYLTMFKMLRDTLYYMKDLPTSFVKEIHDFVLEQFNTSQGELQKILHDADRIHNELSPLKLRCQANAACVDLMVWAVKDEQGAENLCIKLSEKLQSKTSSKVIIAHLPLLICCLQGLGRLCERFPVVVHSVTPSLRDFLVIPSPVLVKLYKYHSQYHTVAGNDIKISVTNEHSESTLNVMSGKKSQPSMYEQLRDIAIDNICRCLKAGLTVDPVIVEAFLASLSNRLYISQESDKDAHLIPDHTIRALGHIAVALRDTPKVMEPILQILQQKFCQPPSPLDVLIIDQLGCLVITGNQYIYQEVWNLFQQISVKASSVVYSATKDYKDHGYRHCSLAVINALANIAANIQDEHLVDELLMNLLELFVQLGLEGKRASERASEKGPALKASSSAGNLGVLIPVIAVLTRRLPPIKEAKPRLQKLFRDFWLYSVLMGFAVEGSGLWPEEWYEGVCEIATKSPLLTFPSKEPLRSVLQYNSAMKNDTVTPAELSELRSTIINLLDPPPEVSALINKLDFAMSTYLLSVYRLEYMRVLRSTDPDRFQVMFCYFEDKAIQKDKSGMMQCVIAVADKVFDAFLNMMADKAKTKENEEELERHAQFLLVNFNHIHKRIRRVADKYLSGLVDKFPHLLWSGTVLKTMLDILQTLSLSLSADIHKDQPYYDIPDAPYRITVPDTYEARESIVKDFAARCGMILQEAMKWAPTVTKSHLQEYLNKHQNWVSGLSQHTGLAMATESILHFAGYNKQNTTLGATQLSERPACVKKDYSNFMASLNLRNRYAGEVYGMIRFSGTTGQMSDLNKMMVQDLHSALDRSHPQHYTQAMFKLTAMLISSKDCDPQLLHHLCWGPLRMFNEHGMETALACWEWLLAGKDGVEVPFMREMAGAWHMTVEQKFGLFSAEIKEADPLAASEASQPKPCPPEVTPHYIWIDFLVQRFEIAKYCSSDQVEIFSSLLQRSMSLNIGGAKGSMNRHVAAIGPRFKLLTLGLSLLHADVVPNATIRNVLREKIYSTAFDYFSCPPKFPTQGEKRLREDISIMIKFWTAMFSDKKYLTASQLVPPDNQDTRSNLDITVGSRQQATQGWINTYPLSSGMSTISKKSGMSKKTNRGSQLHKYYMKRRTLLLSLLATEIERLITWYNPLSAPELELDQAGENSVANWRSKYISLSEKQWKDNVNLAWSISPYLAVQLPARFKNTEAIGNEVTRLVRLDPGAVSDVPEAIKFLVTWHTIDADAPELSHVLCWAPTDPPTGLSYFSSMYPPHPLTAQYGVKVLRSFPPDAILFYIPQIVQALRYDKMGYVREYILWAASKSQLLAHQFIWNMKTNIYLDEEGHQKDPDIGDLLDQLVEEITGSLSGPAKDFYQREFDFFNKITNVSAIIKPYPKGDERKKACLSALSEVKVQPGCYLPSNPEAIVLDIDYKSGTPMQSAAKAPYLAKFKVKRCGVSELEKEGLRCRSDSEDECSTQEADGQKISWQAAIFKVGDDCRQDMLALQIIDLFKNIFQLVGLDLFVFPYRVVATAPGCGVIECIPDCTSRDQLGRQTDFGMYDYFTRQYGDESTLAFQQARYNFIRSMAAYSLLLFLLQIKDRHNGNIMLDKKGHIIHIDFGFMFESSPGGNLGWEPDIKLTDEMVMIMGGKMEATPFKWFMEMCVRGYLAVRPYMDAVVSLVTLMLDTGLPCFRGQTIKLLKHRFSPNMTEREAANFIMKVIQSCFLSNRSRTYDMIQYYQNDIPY
UniProt Q9UBF8: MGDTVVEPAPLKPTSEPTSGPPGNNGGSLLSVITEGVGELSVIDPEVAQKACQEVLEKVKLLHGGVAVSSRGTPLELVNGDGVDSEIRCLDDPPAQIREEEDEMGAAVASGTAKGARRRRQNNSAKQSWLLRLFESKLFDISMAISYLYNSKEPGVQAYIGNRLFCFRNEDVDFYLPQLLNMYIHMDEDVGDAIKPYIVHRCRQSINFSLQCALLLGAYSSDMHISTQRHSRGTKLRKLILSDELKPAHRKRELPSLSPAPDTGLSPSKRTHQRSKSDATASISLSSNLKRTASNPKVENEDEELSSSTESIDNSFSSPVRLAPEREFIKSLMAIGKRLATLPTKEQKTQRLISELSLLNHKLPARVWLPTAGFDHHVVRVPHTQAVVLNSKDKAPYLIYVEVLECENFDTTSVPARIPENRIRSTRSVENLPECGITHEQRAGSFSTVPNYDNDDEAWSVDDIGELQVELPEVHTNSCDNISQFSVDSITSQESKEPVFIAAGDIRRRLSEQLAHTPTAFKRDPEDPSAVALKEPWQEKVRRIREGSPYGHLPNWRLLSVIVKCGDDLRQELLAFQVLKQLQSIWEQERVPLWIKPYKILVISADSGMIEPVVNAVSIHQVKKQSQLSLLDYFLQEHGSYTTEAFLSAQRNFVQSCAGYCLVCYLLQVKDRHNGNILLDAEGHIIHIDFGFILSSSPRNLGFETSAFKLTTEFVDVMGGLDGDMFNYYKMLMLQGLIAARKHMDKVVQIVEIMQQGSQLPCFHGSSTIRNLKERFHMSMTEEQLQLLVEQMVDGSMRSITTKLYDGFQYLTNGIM
UniProt P53350, whole entry: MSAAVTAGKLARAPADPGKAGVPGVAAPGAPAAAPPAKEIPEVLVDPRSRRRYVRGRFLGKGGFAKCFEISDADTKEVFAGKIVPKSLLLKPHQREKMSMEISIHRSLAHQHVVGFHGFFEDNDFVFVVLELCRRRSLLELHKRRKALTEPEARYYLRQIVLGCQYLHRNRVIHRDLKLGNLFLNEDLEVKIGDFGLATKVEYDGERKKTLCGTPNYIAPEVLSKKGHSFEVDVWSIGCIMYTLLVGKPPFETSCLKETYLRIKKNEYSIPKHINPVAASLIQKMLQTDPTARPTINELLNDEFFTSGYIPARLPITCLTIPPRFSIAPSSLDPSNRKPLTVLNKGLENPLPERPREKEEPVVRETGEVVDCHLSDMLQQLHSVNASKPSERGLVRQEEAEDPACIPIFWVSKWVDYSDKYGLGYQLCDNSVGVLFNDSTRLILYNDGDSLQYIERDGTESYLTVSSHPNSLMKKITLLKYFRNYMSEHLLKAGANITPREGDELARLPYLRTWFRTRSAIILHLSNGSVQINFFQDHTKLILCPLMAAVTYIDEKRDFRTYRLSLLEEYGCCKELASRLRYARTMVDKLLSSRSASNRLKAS
UniProt Q13131: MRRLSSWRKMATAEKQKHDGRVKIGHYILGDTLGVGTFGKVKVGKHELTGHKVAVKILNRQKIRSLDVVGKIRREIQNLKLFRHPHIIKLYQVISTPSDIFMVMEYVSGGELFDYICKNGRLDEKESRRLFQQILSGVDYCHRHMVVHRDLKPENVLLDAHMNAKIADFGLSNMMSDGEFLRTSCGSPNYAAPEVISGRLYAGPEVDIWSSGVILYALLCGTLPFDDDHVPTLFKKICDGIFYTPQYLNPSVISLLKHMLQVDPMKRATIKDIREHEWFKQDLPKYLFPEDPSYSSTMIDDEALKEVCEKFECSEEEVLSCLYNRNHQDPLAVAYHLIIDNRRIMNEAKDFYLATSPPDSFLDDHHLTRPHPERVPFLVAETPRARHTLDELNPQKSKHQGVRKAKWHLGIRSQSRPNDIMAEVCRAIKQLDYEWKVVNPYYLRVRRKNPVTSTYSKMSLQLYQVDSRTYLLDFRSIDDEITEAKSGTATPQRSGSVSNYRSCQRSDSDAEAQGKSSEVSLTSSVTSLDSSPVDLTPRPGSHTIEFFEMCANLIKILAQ
UniProt Q14289, whole entry, looked up: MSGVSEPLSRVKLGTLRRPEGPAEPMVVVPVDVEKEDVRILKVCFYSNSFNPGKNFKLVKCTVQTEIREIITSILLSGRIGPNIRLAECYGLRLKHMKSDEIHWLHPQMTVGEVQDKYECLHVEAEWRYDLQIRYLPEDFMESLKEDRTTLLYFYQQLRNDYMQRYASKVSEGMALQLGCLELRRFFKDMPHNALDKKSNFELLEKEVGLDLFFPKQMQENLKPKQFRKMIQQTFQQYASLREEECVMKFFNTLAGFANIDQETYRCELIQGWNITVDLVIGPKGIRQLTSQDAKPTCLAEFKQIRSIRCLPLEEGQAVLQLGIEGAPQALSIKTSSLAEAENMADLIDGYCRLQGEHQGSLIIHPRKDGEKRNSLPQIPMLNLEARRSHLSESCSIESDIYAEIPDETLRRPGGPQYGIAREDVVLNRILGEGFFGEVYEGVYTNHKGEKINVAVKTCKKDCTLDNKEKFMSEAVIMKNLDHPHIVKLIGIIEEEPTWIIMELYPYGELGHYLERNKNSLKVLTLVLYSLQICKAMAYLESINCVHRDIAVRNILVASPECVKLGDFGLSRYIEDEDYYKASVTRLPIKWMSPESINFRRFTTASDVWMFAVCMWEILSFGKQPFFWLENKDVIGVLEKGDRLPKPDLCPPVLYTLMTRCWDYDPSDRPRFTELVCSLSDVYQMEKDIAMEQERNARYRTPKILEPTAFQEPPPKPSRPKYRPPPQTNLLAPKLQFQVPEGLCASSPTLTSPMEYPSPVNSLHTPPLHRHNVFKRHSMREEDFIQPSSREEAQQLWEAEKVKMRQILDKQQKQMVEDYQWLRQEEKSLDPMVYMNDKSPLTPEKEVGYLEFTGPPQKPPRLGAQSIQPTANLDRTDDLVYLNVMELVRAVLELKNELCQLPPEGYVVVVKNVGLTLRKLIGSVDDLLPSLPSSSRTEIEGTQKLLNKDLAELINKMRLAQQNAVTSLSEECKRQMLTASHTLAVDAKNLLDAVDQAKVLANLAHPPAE

Tests used:
Assay in all cases: kinase-Nluc reporter destabilization hit call (1 = scored as downregulated) (binary); higher = compound decreases kinase abundance
Details in all cases: K562, 2-18 h
PDPK1 = PDPK1 (UniProt O15530)
PIK4CA = PIK4CA (UniProt P42356)
PIK4CB = PIK4CB (UniProt Q9UBF8)
PLK1 = PLK1 (UniProt P53350)
PRKAA1 = PRKAA1 (UniProt Q13131)
PRKCA = PRKCA (UniProt P17252)
PTK2 = PTK2 (UniProt Q05397)
PTK2B = PTK2B (UniProt Q14289)
RAF1 = RAF1 (UniProt P04049)
[1] = target: RAF1_S257L (clone: RAF1_mut) (UniProt P04049)

SMILES | kinase-Nluc reporter destabilization hit call (PDPK1; 10 µM) | kinase-Nluc reporter destabilization hit call (PIK4CA; 10 µM) | kinase-Nluc reporter destabilization hit call (PIK4CB; 10 µM) | kinase-Nluc reporter destabilization hit call (PLK1; 10 µM) | kinase-Nluc reporter destabilization hit call (PRKAA1; 10 µM) | kinase-Nluc reporter destabilization hit call (PRKCA; 10 µM) | kinase-Nluc reporter destabilization hit call (PTK2; 10 µM) | kinase-Nluc reporter destabilization hit call (PTK2B; 10 µM) | kinase-Nluc reporter destabilization hit call (RAF1; 10 µM) | kinase-Nluc reporter destabilization hit call ([1]; 10 µM) | kinase-Nluc reporter destabilization hit call (PDPK1; 2.5 µM) | kinase-Nluc reporter destabilization hit call (PIK4CA; 2.5 µM) | kinase-Nluc reporter destabilization hit call (PIK4CB; 2.5 µM) | kinase-Nluc reporter destabilization hit call (PLK1; 2.5 µM) | kinase-Nluc reporter destabilization hit call (PRKAA1; 2.5 µM) | kinase-Nluc reporter destabilization hit call (PRKCA; 2.5 µM) | kinase-Nluc reporter destabilization hit call (PTK2; 2.5 µM) | kinase-Nluc reporter destabilization hit call (PTK2B; 2.5 µM) | kinase-Nluc reporter destabilization hit call (RAF1; 2.5 µM) | kinase-Nluc reporter destabilization hit call ([1]; 2.5 µM)
CNC(=O)c1cc(Oc2ccc(NC(=O)Nc3ccc(Cl)c(C(F)(F)F)c3)cc2)ccn1 [Sorafenib (Tosylate)] | inactive: 0 | inactive: 0 | inactive: 0 | inactive: 0 | inactive: 0 | inactive: 0 | inactive: 0 | inactive: 0 | inactive: 0 | inactive: 0 | – | – | – | – | – | – | – | – | – | –
O=c1ncn2nc(Sc3ccc(F)cc3F)ccc2c1-c1c(Cl)cccc1Cl [Neflamapimod] | inactive: 0 | inactive: 0 | inactive: 0 | inactive: 0 | inactive: 0 | inactive: 0 | inactive: 0 | inactive: 0 | inactive: 0 | inactive: 0 | – | – | – | – | – | – | – | – | – | –
Cc1cnc(Nc2ccc(OCCN3CCCC3)cc2)nc1Nc1cccc(S(=O)(=O)NC(C)(C)C)c1 [Fedratinib] | – | – | – | – | – | – | – | – | – | – | inactive: 0 | inactive: 0 | inactive: 0 | inactive: 0 | inactive: 0 | inactive: 0 | inactive: 0 | inactive: 0 | inactive: 0 | inactive: 0
CCOc1cc2ncc(C#N)c(Nc3ccc(F)c(Cl)c3)c2cc1NC(=O)/C=C/CN(C)C [Pelitinib] | – | – | – | – | – | – | – | – | – | – | inactive: 0 | inactive: 0 | inactive: 0 | inactive: 0 | inactive: 0 | inactive: 0 | inactive: 0 | inactive: 0 | inactive: 0 | inactive: 0
COc1cc(N2CCN(C)CC2)ccc1Nc1nccc(-c2cn(C)c3cnccc23)n1 | inactive: 0 | inactive: 0 | inactive: 0 | inactive: 0 | inactive: 0 | inactive: 0 | inactive: 0 | inactive: 0 | inactive: 0 | inactive: 0 | – | – | – | – | – | – | – | – | – | –
C=CC(=O)Nc1cc2c(Nc3ccc(F)c(Cl)c3)ncnc2cc1OCCCN1CCOCC1 [Canertinib (dihydrochloride)] | – | – | – | – | – | – | – | – | – | – | inactive: 0 | inactive: 0 | inactive: 0 | inactive: 0 | inactive: 0 | inactive: 0 | inactive: 0 | inactive: 0 | inactive: 0 | inactive: 0
COc1cc2ncnc(Nc3cccc(Br)c3)c2cc1OC | inactive: 0 | inactive: 0 | inactive: 0 | inactive: 0 | inactive: 0 | inactive: 0 | inactive: 0 | inactive: 0 | inactive: 0 | inactive: 0 | – | – | – | – | – | – | – | – | – | –
COc1nccc(-c2c(-c3ccc(F)cc3)ncn2C2CCNCC2)n1 | inactive: 0 | inactive: 0 | inactive: 0 | inactive: 0 | inactive: 0 | inactive: 0 | inactive: 0 | inactive: 0 | inactive: 0 | inactive: 0 | – | – | – | – | – | – | – | – | – | –
CC1(C)CNc2cc(NC(=O)c3cccnc3NCc3ccncc3)ccc21 [Motesanib] | – | – | – | – | – | – | – | – | – | – | inactive: 0 | inactive: 0 | inactive: 0 | inactive: 0 | inactive: 0 | inactive: 0 | inactive: 0 | inactive: 0 | inactive: 0 | inactive: 0
CCn1c(=O)c(-c2cc(NC(=O)Nc3ccccc3)c(F)cc2Br)cc2cnc(NC)cc21 [Ripretinib] | inactive: 0 | inactive: 0 | inactive: 0 | inactive: 0 | inactive: 0 | inactive: 0 | inactive: 0 | inactive: 0 | inactive: 0 | inactive: 0 | – | – | – | – | – | – | – | – | – | –
Cc1ccc2c(=O)c3cccc(CC(=O)O)c3oc2c1C [Vadimezan] | inactive: 0 | inactive: 0 | inactive: 0 | inactive: 0 | inactive: 0 | inactive: 0 | inactive: 0 | inactive: 0 | inactive: 0 | inactive: 0 | – | – | – | – | – | – | – | – | – | –
O=C(O)c1ccc(Nc2ncc3c(n2)-c2ccc(Cl)cc2C(c2c(F)cccc2F)=NC3)cc1 | inactive: 0 | inactive: 0 | inactive: 0 | inactive: 0 | inactive: 0 | inactive: 0 | inactive: 0 | inactive: 0 | inactive: 0 | inactive: 0 | – | – | – | – | – | – | – | – | – | –
O=C(Nc1cccc(Nc2nccc(Nc3cccc(C(F)(F)F)c3)n2)c1)C1CC1 [Aurora kinase inhibitor-3] | – | – | – | – | – | – | – | – | – | – | inactive: 0 | inactive: 0 | inactive: 0 | inactive: 0 | inactive: 0 | inactive: 0 | inactive: 0 | inactive: 0 | inactive: 0 | inactive: 0
CC1(C)CNc2cc(NC(=O)c3cccnc3NCc3ccncc3)ccc21 [Motesanib (Diphosphate)] | – | – | – | – | – | – | – | – | – | – | inactive: 0 | inactive: 0 | inactive: 0 | inactive: 0 | inactive: 0 | inactive: 0 | inactive: 0 | inactive: 0 | inactive: 0 | inactive: 0
NC1(C(=O)N[C@@H](CCO)c2ccc(Cl)cc2)CCN(c2nc[nH]c3nccc2-3)CC1 [Capivasertib] | inactive: 0 | inactive: 0 | inactive: 0 | inactive: 0 | inactive: 0 | inactive: 0 | inactive: 0 | inactive: 0 | inactive: 0 | inactive: 0 | – | – | – | – | – | – | – | – | – | –
CCCCCCCCCCCCc1ccc(S(=O)(=O)Nc2nncs2)cc1 | inactive: 0 | inactive: 0 | inactive: 0 | inactive: 0 | inactive: 0 | inactive: 0 | inactive: 0 | inactive: 0 | inactive: 0 | inactive: 0 | – | – | – | – | – | – | – | – | – | –
CC#CC(=O)N1CCC[C@H]1c1nc(-c2ccc(C(=O)Nc3ccccn3)cc2)c2c(N)nccn12 [Acalabrutinib] | inactive: 0 | inactive: 0 | inactive: 0 | inactive: 0 | inactive: 0 | inactive: 0 | inactive: 0 | inactive: 0 | inactive: 0 | inactive: 0 | – | – | – | – | – | – | – | – | – | –
O=C(Nc1cccc(Cl)c1)Nc1ncc(CCNc2ncnc3ccsc23)s1 [SNS-314 (mesylate)] | inactive: 0 | inactive: 0 | inactive: 0 | inactive: 0 | inactive: 0 | inactive: 0 | inactive: 0 | inactive: 0 | inactive: 0 | inactive: 0 | – | – | – | – | – | – | – | – | – | –
Cn1cc(/C=C2\C(=O)Nc3cccnc32)c2ccccc21 | inactive: 0 | inactive: 0 | inactive: 0 | inactive: 0 | inactive: 0 | inactive: 0 | inactive: 0 | inactive: 0 | inactive: 0 | inactive: 0 | – | – | – | – | – | – | – | – | – | –
COc1cc(Nc2c(C#N)cnc3cc(OCCCN4CCN(C)CC4)c(OC)cc23)c(Cl)cc1Cl [Bosutinib] | – | – | – | – | – | – | – | – | – | – | inactive: 0 | inactive: 0 | inactive: 0 | inactive: 0 | inactive: 0 | inactive: 0 | inactive: 0 | inactive: 0 | inactive: 0 | active: 1
CCc1cc2c(cc1-c1cnn(CC(=O)N(C)C)c1)C(C)(C)c1[nH]c3cc(C#N)ccc3c1C2=O | – | – | – | – | – | – | – | – | – | – | inactive: 0 | inactive: 0 | inactive: 0 | inactive: 0 | inactive: 0 | inactive: 0 | inactive: 0 | inactive: 0 | inactive: 0 | inactive: 0
C=CC(=O)N1CCC[C@@H](n2nc(-c3ccc(Oc4ccccc4)cc3)c3c(N)ncnc32)C1 [Ibrutinib] | – | – | – | – | – | – | – | – | – | – | inactive: 0 | inactive: 0 | inactive: 0 | inactive: 0 | inactive: 0 | inactive: 0 | inactive: 0 | inactive: 0 | inactive: 0 | inactive: 0
Cc1ccc(Nc2nccc(N(C)c3ccc4c(C)n(C)nc4c3)n2)cc1S(N)(=O)=O [Pazopanib (Hydrochloride)] | inactive: 0 | inactive: 0 | inactive: 0 | inactive: 0 | inactive: 0 | inactive: 0 | inactive: 0 | inactive: 0 | inactive: 0 | inactive: 0 | – | – | – | – | – | – | – | – | – | –
C[C@@H]1CN(C(=O)Nc2ccc(-c3nc(N4CCOCC4)c4cnn(CCCCCCC(=O)NO)c4n3)cc2)CCO1 [HDACs/mTOR Inhibitor 1] | inactive: 0 | inactive: 0 | inactive: 0 | inactive: 0 | inactive: 0 | inactive: 0 | inactive: 0 | inactive: 0 | inactive: 0 | inactive: 0 | – | – | – | – | – | – | – | – | – | –
Cc1cnc(Nc2ccc(OCCN3CCCC3)cc2)nc1Nc1cccc(S(=O)(=O)NC(C)(C)C)c1 [Fedratinib (hydrochloride hydrate)] | – | – | – | – | – | – | – | – | – | – | inactive: 0 | inactive: 0 | inactive: 0 | inactive: 0 | inactive: 0 | inactive: 0 | inactive: 0 | inactive: 0 | inactive: 0 | inactive: 0
Nc1nc(Nc2ccc(S(N)(=O)=O)cc2)nn1C(=O)c1c(F)cccc1F | – | – | – | – | – | – | – | – | – | – | inactive: 0 | inactive: 0 | inactive: 0 | inactive: 0 | inactive: 0 | inactive: 0 | inactive: 0 | inactive: 0 | inactive: 0 | inactive: 0
CC(C)N(CCC(=O)c1ccc2ccccc2c1)Cc1ccccc1 | inactive: 0 | inactive: 0 | inactive: 0 | inactive: 0 | inactive: 0 | inactive: 0 | inactive: 0 | inactive: 0 | inactive: 0 | inactive: 0 | – | – | – | – | – | – | – | – | – | –
Nc1ncnc2c1c(-c1cnc3[nH]ccc3c1)nn2C1CCCC1 | – | – | – | – | – | – | – | – | – | – | inactive: 0 | inactive: 0 | inactive: 0 | inactive: 0 | inactive: 0 | inactive: 0 | inactive: 0 | inactive: 0 | inactive: 0 | inactive: 0
NC(=O)c1c(OCc2c(F)cc(Br)cc2F)nsc1NC(=O)NCCCCN1CCCC1 | – | – | – | – | – | – | – | – | – | – | inactive: 0 | inactive: 0 | inactive: 0 | inactive: 0 | inactive: 0 | inactive: 0 | inactive: 0 | inactive: 0 | inactive: 0 | inactive: 0
Cc1ccc(O)cc1Nc1ccnc(Nc2cccc(C(N)=O)c2)n1 [Lck inhibitor 2] | inactive: 0 | inactive: 0 | inactive: 0 | inactive: 0 | inactive: 0 | inactive: 0 | inactive: 0 | inactive: 0 | inactive: 0 | inactive: 0 | – | – | – | – | – | – | – | – | – | –

Full records as entered above. Order of values: kinase-Nluc reporter destabilization hit call (PDPK1; 10 µM) | kinase-Nluc reporter destabilization hit call (PIK4CA; 10 µM) | kinase-Nluc reporter destabilization hit call (PIK4CB; 10 µM) | kinase-Nluc reporter destabilization hit call (PLK1; 10 µM) | kinase-Nluc reporter destabilization hit call (PRKAA1; 10 µM) | kinase-Nluc reporter destabilization hit call (PRKCA; 10 µM) | kinase-Nluc reporter destabilization hit call (PTK2; 10 µM) | kinase-Nluc reporter destabilization hit call (PTK2B; 10 µM) | kinase-Nluc reporter destabilization hit call (RAF1; 10 µM) | kinase-Nluc reporter destabilization hit call ([1]; 10 µM) | kinase-Nluc reporter destabilization hit call (PDPK1; 2.5 µM) | kinase-Nluc reporter destabilization hit call (PIK4CA; 2.5 µM) | kinase-Nluc reporter destabilization hit call (PIK4CB; 2.5 µM) | kinase-Nluc reporter destabilization hit call (PLK1; 2.5 µM) | kinase-Nluc reporter destabilization hit call (PRKAA1; 2.5 µM) | kinase-Nluc reporter destabilization hit call (PRKCA; 2.5 µM) | kinase-Nluc reporter destabilization hit call (PTK2; 2.5 µM) | kinase-Nluc reporter destabilization hit call (PTK2B; 2.5 µM) | kinase-Nluc reporter destabilization hit call (RAF1; 2.5 µM) | kinase-Nluc reporter destabilization hit call ([1]; 2.5 µM)
Cn1cc(/C=C2\C(=O)Nc3cccnc32)c2ccccc21 reads inactive: 0 | inactive: 0 | inactive: 0 | inactive: 0 | inactive: 0 | inactive: 0 | inactive: 0 | inactive: 0 | inactive: 0 | inactive: 0 | – | – | – | – | – | – | – | – | – | –
CNC(=O)c1cc(Oc2ccc(NC(=O)Nc3ccc(Cl)c(C(F)(F)F)c3)cc2)ccn1 [Sorafenib (Tosylate)] reads inactive: 0 | inactive: 0 | inactive: 0 | inactive: 0 | inactive: 0 | inactive: 0 | inactive: 0 | inactive: 0 | inactive: 0 | inactive: 0 | – | – | – | – | – | – | – | – | – | –
